Tested on: ZO1 expression in T84 cells
Assay: IFNγ-mediated loss of ZO1 expression in T84 cells (immunofluorescence)
Assay type: cell-based, human
Conditions: pre-treatment with 1 mM metabolite for 18 hours, IFNγ 48 hours
From the text: Tight junctions (TJs) form a continuous barrier between epithelial cells and act to control paracellular permeability. ZO1 plays a key role in tight junction assembly and we therefore assessed the ability of I. colisanans MH27 supernatant extract to mitigate IFNγ-mediated loss of ZO1 expression in T84 cells. Stimulation with IFNγ caused a marked reduction in ZO1 expression (FIG. 11). […] In contrast, pre-treatment with I. colisanans MH27-1, MH27-2, and MH27-3 supernatant extract amelioratered the IFNγ induced reduction in ZO1 expression (FIG. 11).
Bacterial culture supernatant extracts were prepared using an Amberlite XAD-7 resin as previously described by Colosimo et al. (supra). Briefly, activated Amberlite XAD-7 resin was added to 150 mL of 3 kDa-filtered cell-free supernatant (10% w/v), and gently shaken overnight at 4° C. The resin was collected, washed with 150 mL of deionized water, and mixed with 50 mL 100% methanol. Following 2 h incubation with gentle shaking, the methanol elution was collected. A second elution in 25 mL of 100% methanol was performed as previously described and the two elution were combined and dried with a rotary evaporator under vacuum. […]
The ability of I. colisanans MH27-1, MH27-2, and MH27-3 to prevent IFNγ-mediated loss of Zonula Occludens 1 (ZO1) expression was assessed through immunofluorescence staining and confocal microscopy. […]

## NCCC[C@H](N)C(=O)O [Ornithine]
  IFNγ-induced reduction in ZO1 expression: significantly ameliorated

From patent US20260027161A1, “BACTERIAL STRAINS FOR TREATING DISEASE” (MICROBA IP PTY LTD, priority 2021, published 2026)
